Reference: PubChem BioAssay AID1259308 (NCATS, 2017)
Here is a random part of about 59,000 reagents. Of all reagents, about 1,510 (2.6%) were called active. 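Calls use total luciferase alone and ignore viability, so some active siRNAs may act by altering cell number.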 The numbers tell different reagents against one gene apart. Not all columns of the deposit are shown.

Purpose: 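Genes whose loss raises luciferase production in HEK293 cells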 (primary screen)
Cells: human HEK293 embryonic kidney cells stably expressing firefly luciferase (HEK-CMV-Luc2-Hygro)
Reagents: single siRNA against human genes, 0.8 pmol siRNA per well
Timing: 72 h
Detection: 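Luciferase light (ONE-Glo) measured on one replicate plate set and viability (CellTiter-Glo) on the other, scaled to a negative control siRNA, with robust z-scores and luciferase per cell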
Reading the numbers: total luciferase, z-score and total luciferase, % of control: higher = more reporter protein produced
Call rule: 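An siRNA counts as active if its total luciferase robust z-score exceeds 3; genes with two or more such siRNAs out of three were retested with fresh siRNAs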
Calls: active = raised luciferase; inactive = no rise

no.	Gene	reagent no.	total luciferase, z-score	total luciferase, % of control	activity call
1	DYNLRB2 (dynein light chain roadblock-type 2)	1	-0.0962	80	inactive
2	DYNLRB2 (dynein light chain roadblock-type 2)	2	-0.851	65	inactive
3	DYNLRB2 (dynein light chain roadblock-type 2)	3	-1.42	53.6	inactive
4	POU1F1 (POU class 1 homeobox 1)	1	1.29	108	inactive
5	POU1F1 (POU class 1 homeobox 1)	2	2.12	124	inactive
6	POU1F1 (POU class 1 homeobox 1)	3	-1.74	47.3	inactive
7	DPP9 (dipeptidyl peptidase 9)	1	0.923	100	inactive
8	DPP9 (dipeptidyl peptidase 9)	2	-0.812	65.7	inactive
9	DPP9 (dipeptidyl peptidase 9)	3	-0.474	72.4	inactive
10	LBX2 (ladybird homeobox 2)	1	0.387	89.6	inactive
11	LBX2 (ladybird homeobox 2)	2	-0.306	75.8	inactive
12	LBX2 (ladybird homeobox 2)	3	-0.676	68.4	inactive
13	LOC728114 (retired record)	1	0.274	87.3	inactive
14	LOC728114 (retired record)	2	-0.566	70.6	inactive
15	LOC728114 (retired record)	3	0.127	84.4	inactive
16	CDH9 (cadherin 9)	1	-0.23	77.3	inactive
17	CDH9 (cadherin 9)	2	0.648	94.8	inactive
18	CDH9 (cadherin 9)	3	-1	61.9	inactive
19	FAM219B (family with sequence similarity 219 member B)	1	1.27	107	inactive
20	FAM219B (family with sequence similarity 219 member B)	2	-0.198	78	inactive
21	FAM219B (family with sequence similarity 219 member B)	3	-0.99	62.2	inactive
22	LSM5	1	0.557	93	inactive
23	LSM5	2	1.36	109	inactive
24	LSM5	3	-0.802	65.9	inactive
25	ZC2HC1A (zinc finger C2HC-type containing 1A)	1	0.28	87.4	inactive
26	ZC2HC1A (zinc finger C2HC-type containing 1A)	2	-0.48	72.3	inactive
27	ZC2HC1A (zinc finger C2HC-type containing 1A)	3	-0.279	76.3	inactive
28	TSC22D2 (TSC22 domain family member 2)	1	-1.1	60.1	inactive
29	TSC22D2 (TSC22 domain family member 2)	2	0.307	88	inactive
30	TSC22D2 (TSC22 domain family member 2)	3	-2.03	41.5	inactive
31	PRAMEF12 (PRAME family member 12)	1	0.0891	83.7	inactive
32	PRAMEF12 (PRAME family member 12)	2	0.0394	82.7	inactive
33	PRAMEF12 (PRAME family member 12)	3	0.645	94.7	inactive
34	TSPOAP1 (TSPO associated protein 1)	1	-0.875	64.5	inactive
35	TSPOAP1 (TSPO associated protein 1)	2	-1.96	42.8	inactive
36	TSPOAP1 (TSPO associated protein 1)	3	0.459	91	inactive
37	PYCR3 (pyrroline-5-carboxylate reductase 3)	1	0.308	88	inactive
38	PYCR3 (pyrroline-5-carboxylate reductase 3)	2	-1.75	47.1	inactive
39	PYCR3 (pyrroline-5-carboxylate reductase 3)	3	1.34	109	inactive
40	LINC03040 (long independently transcribed non-coding RNA 3040)	1	-1.7	48.1	inactive
41	LINC03040 (long independently transcribed non-coding RNA 3040)	2	0.403	89.9	inactive
42	LINC03040 (long independently transcribed non-coding RNA 3040)	3	-1.33	55.5	inactive
43	TMEM134 (transmembrane protein 134)	1	0.166	85.2	inactive
44	TMEM134 (transmembrane protein 134)	2	-1.78	46.5	inactive
45	TMEM134 (transmembrane protein 134)	3	-0.569	70.6	inactive
46	PTPRK (protein tyrosine phosphatase receptor type K)	1	0.157	85	inactive
47	PTPRK (protein tyrosine phosphatase receptor type K)	2	-0.501	71.9	inactive
48	PTPRK (protein tyrosine phosphatase receptor type K)	3	0.0822	83.5	inactive
49	FOXN1 (forkhead box N1)	1	-0.384	74.2	inactive
50	FOXN1 (forkhead box N1)	2	-0.234	77.2	inactive
51	FOXN1 (forkhead box N1)	3	6.27	207	active
52	ECEL1 (endothelin converting enzyme like 1)	1	-0.0803	80.3	inactive
53	ECEL1 (endothelin converting enzyme like 1)	2	-0.638	69.2	inactive
54	ECEL1 (endothelin converting enzyme like 1)	3	0.485	91.5	inactive
55	SDS (serine dehydratase)	1	-0.0635	80.6	inactive
56	SDS (serine dehydratase)	2	2.16	125	inactive
57	SDS (serine dehydratase)	3	-2.05	41.1	inactive

Records listed so far whose gene name starts with C or c:
Gene	reagent no.	total luciferase, z-score	total luciferase, % of control	activity call
CDH9 (cadherin 9)	1	-0.23	77.3	inactive
CDH9 (cadherin 9)	2	0.648	94.8	inactive
CDH9 (cadherin 9)	3	-1	61.9	inactive
